Measurements taken from the supplement of paper PMC6411743.
± gives the standard deviation of the averaged measurements. This is a selection; strong and weak results do not stand in their true shares.

Chains of the proteins cited; added tags and fusions are not shown. Lines headed by an entry give the natural chain unless they say otherwise; changes in a name come on top.
UniProt Q86U70: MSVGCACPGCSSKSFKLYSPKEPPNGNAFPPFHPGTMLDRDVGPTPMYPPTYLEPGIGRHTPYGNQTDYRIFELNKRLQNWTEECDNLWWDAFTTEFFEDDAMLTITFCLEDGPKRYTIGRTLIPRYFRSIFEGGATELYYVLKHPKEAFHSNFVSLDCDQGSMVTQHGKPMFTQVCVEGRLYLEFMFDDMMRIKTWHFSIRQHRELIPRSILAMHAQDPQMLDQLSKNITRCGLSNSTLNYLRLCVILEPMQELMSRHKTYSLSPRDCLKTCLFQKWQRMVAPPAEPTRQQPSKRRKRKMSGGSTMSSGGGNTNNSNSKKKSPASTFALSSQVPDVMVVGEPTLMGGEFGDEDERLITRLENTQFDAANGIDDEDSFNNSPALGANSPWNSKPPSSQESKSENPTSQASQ
UniProt Q8IXS8: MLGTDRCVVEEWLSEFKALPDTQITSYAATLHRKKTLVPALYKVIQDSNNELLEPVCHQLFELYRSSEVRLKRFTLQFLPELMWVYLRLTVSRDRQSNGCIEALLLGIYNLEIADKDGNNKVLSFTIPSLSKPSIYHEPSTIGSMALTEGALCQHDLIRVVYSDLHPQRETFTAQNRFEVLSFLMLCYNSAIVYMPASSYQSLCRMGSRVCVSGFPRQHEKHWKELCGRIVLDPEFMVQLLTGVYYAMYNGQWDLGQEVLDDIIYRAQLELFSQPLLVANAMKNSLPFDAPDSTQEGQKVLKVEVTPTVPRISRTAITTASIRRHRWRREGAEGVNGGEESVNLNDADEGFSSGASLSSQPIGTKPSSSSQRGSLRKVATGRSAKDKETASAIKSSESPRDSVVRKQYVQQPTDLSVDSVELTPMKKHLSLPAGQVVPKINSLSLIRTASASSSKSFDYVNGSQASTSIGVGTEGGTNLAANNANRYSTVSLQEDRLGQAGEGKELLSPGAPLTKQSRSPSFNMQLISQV
UniProt Q8IXK2: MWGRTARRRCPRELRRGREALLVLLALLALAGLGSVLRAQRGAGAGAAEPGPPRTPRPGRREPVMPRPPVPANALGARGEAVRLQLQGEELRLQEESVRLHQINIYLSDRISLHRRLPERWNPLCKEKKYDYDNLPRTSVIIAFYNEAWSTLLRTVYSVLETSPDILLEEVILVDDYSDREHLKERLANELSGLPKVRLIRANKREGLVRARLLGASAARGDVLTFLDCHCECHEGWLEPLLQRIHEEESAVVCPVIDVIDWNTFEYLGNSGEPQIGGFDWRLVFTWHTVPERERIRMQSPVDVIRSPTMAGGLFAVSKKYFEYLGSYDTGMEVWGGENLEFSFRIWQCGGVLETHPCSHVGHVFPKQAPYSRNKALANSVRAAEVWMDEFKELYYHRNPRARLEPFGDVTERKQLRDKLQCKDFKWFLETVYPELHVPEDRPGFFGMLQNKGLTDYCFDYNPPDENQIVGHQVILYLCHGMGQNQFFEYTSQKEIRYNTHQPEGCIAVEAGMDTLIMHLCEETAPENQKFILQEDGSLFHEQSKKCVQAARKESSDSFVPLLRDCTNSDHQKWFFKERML
UniProt Q8IVB5: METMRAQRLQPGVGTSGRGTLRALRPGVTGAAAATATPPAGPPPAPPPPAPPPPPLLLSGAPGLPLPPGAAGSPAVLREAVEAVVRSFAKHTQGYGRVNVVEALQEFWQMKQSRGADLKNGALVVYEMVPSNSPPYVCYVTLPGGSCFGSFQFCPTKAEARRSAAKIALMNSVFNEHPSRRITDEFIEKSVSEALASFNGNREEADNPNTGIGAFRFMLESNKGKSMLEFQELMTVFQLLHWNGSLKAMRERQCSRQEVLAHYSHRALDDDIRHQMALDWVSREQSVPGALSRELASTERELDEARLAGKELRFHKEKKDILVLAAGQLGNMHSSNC
UniProt Q8IXZ2: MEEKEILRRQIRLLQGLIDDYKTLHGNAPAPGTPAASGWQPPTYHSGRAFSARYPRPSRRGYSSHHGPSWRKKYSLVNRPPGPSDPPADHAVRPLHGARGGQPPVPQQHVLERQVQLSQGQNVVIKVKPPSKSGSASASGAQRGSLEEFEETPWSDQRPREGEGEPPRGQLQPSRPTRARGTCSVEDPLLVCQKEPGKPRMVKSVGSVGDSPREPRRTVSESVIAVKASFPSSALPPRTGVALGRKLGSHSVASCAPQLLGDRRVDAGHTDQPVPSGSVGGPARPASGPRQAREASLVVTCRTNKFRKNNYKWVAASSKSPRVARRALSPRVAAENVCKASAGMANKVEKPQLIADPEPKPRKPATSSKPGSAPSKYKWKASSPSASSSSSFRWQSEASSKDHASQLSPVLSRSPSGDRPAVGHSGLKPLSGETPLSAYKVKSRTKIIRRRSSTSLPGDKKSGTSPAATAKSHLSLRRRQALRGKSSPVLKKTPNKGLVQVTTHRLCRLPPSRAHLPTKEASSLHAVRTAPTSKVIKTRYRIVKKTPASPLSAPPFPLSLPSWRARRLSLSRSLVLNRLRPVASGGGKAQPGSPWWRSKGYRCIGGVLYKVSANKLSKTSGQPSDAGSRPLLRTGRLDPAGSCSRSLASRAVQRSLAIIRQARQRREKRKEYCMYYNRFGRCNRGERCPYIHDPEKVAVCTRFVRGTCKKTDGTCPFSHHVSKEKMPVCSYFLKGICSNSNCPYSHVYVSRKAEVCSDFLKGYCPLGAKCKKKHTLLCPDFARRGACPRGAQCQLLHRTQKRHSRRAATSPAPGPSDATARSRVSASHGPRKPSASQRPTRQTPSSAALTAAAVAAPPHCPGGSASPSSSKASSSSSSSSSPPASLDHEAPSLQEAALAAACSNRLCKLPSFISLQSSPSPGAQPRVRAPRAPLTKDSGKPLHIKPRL
UniProt Q8N183: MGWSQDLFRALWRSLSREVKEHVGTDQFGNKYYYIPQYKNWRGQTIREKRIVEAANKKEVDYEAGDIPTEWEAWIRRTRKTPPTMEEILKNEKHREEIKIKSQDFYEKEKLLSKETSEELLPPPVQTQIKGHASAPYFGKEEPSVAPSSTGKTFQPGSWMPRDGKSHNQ
UniProt Q8N5M4: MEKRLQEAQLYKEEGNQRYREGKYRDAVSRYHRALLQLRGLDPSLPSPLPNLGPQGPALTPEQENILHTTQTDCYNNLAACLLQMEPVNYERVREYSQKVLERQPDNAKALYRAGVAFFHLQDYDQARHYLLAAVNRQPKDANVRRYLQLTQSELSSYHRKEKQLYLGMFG
UniProt Q8N490: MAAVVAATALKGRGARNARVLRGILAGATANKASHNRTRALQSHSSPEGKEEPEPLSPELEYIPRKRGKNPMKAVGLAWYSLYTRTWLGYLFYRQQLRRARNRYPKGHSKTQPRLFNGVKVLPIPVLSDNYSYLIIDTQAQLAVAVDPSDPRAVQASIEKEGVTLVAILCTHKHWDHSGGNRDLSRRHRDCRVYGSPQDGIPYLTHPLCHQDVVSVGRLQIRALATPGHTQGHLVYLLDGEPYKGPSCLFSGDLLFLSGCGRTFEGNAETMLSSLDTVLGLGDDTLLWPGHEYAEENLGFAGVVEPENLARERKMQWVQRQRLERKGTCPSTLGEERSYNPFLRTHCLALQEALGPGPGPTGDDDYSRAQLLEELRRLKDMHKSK
UniProt Q8N5M1: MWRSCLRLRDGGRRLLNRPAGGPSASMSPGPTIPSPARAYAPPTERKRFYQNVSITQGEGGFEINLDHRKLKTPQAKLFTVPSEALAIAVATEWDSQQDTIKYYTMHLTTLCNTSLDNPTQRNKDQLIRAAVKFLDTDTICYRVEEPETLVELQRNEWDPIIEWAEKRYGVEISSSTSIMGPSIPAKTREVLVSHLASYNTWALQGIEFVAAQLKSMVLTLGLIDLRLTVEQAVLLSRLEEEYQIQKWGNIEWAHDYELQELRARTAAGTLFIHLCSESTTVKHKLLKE
UniProt Q8N163, whole entry: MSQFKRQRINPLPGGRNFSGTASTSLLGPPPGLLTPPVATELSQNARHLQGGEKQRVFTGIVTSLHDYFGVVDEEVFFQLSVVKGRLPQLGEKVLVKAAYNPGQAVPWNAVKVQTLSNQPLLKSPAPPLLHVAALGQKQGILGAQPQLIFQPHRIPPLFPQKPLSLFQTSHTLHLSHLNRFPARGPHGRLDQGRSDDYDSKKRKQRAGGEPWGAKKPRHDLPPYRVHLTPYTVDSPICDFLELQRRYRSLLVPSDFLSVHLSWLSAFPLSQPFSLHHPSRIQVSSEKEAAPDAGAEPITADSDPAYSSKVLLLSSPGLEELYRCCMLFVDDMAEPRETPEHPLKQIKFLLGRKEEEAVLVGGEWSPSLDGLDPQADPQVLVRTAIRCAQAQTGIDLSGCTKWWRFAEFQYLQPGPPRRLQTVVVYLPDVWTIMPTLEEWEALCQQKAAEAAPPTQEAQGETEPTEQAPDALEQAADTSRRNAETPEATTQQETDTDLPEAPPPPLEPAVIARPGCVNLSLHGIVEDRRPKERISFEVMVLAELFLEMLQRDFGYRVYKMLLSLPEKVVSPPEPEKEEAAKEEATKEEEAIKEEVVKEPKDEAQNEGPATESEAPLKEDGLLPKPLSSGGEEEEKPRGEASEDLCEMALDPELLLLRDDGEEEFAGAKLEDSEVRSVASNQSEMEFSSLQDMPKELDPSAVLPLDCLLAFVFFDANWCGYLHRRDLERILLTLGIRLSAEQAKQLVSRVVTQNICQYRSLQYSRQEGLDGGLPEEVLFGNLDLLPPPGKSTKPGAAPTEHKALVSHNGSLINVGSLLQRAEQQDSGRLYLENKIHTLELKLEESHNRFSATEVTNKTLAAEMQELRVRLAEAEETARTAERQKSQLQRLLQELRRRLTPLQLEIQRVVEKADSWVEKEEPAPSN
UniProt Q8NBP0: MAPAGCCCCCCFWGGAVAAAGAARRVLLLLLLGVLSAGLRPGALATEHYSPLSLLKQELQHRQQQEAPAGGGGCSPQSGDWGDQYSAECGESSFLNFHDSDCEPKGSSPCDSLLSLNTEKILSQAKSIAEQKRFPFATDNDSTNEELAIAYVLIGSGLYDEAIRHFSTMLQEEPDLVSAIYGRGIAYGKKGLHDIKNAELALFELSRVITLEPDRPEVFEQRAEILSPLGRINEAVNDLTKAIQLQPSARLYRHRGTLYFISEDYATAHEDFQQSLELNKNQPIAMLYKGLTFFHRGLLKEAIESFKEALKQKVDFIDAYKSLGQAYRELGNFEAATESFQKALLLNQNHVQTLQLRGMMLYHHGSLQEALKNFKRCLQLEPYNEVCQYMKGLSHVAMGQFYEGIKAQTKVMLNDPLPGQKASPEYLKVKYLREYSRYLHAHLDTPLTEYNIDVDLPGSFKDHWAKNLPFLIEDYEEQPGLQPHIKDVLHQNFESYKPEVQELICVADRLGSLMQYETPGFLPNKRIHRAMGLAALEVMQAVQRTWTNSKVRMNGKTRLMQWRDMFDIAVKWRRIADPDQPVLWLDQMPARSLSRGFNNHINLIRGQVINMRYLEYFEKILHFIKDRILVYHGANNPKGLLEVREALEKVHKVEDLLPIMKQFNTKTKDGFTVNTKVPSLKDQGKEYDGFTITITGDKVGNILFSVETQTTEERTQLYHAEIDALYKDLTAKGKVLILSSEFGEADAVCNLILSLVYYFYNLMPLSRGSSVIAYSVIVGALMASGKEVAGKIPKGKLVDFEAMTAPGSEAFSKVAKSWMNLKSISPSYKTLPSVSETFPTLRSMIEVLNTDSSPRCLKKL
UniProt Q8N371: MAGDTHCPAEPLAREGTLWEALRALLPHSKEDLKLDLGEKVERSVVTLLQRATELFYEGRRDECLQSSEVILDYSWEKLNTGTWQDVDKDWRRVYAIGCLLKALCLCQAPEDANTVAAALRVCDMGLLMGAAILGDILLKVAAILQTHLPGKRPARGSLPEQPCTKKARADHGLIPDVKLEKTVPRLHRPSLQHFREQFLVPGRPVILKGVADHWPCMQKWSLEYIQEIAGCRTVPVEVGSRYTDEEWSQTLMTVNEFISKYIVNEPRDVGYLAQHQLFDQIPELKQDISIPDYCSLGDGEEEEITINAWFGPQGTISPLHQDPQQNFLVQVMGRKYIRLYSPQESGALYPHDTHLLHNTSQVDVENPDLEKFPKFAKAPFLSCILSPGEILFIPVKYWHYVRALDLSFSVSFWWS
UniProt Q86YS6: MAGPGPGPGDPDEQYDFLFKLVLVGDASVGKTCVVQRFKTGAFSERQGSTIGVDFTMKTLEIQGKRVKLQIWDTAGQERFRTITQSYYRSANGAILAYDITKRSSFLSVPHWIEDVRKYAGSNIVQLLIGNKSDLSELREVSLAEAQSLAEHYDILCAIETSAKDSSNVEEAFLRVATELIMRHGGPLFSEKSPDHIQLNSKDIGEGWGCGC
UniProt Q8N5W9: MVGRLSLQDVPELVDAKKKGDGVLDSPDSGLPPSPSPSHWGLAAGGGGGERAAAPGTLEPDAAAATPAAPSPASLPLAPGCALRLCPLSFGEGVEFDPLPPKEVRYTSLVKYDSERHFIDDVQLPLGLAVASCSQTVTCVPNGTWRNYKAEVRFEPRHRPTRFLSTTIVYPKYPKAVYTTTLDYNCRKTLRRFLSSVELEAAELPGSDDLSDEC

Compound: Nc1ncnc2c1ncn2[C@@H]1O[C@H](COP(=O)(O)OP(=O)(O)NP(=O)(O)O)[C@@H](O)[C@H]1O [adenylyl imidodiphosphate]
Test: NP40-soluble protein abundance relative to vehicle (solubility fold change) (ratio); higher = more soluble protein in presence of AMP-PNP
In short: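 Each value is a fold change relative to the detergent-processed vehicle, calculated per replicate from vsn-normalised intensities. Jurkat crude lysate received eight concentrations (0.1 to 10 mM) for 10 min at room temperature and 3 min at 37 °C, then was solubilised in 0.8% NP40 with benzonase (60 min, 4 °C). The ultracentrifuged supernatant was TMT-labelled and run by LC-MS/MS in three independent experiments.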

Target	NP40-soluble protein abundance (concentration: 1mM)	NP40-soluble protein abundance (concentration: 2mM)	NP40-soluble protein abundance (concentration: 4mM)	NP40-soluble protein abundance (concentration: 6mM)	NP40-soluble protein abundance (concentration: 8mM)	NP40-soluble protein abundance (concentration: 10mM)
UniProt Q86U70 and related entries	0.966 ± 0.028	0.922 ± 0.022	0.969 ± 0.036	0.967 ± 0.027	0.98 ± 0.011	0.991 ± 0.02
FAM126B (UniProt Q8IXS8)	0.998 ± 0.043	1.01 ± 0.023	0.994 ± 0.024	1.01 ± 0.022	1.01 ± 0.031	1.02 ± 0.017
GALNT12 (UniProt Q8IXK2)	0.994 ± 0.021	0.941 ± 0.1	1.03 ± 0.049	0.9517 ± 0.0095	0.985 ± 0.018	0.977 ± 0.032
LIX1L (UniProt Q8IVB5)	0.987 ± 0.016	1.01 ± 0.052	0.993 ± 0.038	0.99 ± 0.064	0.994 ± 0.025	0.98 ± 0.042
ZC3H3 (UniProt Q8IXZ2)	0.992 ± 0.056	1.02 ± 0.04	1 ± 0.023	1 ± 0.049	1.026 ± 0.0077	1.05 ± 0.046
NDUFAF2 (UniProt Q8N183)	1.03 ± 0.095	1.03 ± 0.076	0.99 ± 0.11	0.932 ± 0.065	0.94 ± 0.06	0.897 ± 0.12
UniProt Q8N5M4 and related entries	0.932 ± 0.054	0.94 ± 0.03	0.91 ± 0.032	0.984 ± 0.064	0.961 ± 0.055	0.938 ± 0.071
UniProt Q8N490 and related entries	1.01 ± 0.035	0.9967 ± 0.0088	0.988 ± 0.021	0.995 ± 0.029	0.974 ± 0.027	1 ± 0.018
UniProt Q8N5M1 and related entries	0.957 ± 0.018	0.897 ± 0.097	0.939 ± 0.044	0.943 ± 0.013	0.959 ± 0.013	0.9 ± 0.023
UniProt Q8N163	0.929 ± 0.1	0.889 ± 0.052	0.849 ± 0.088	0.799 ± 0.11	0.757 ± 0.056	0.754 ± 0.082
UniProt Q8NBP0 and related entries	0.998 ± 0.019	0.97 ± 0.025	0.9847 ± 0.0052	0.984 ± 0.025	0.992 ± 0.032	0.991 ± 0.027
UniProt Q8N371	1.02 ± 0.059	1.01 ± 0.032	1.04 ± 0.018	1 ± 0.07	1.05 ± 0.085	1.06 ± 0.036
RAB43 (UniProt Q86YS6)	0.972 ± 0.035	0.915 ± 0.075	0.995 ± 0.025	1.01 ± 0.081	1.03 ± 0.038	0.988 ± 0.013
SUPV3L1 (UniProt Q8IYB8)	1.02 ± 0.012	0.932 ± 0.076	1.02 ± 0.018	0.973 ± 0.013	1.01 ± 0.036	0.95 ± 0.038
RFLNB (UniProt Q8N5W9)	0.988 ± 0.023	1.05 ± 0.017	1.01 ± 0.034	1 ± 0.051	1.01 ± 0.036	1.03 ± 0.055

2 records drawn at random from the list so far, as already listed:
Target	NP40-soluble protein abundance (concentration: 1mM)	NP40-soluble protein abundance (concentration: 2mM)	NP40-soluble protein abundance (concentration: 4mM)	NP40-soluble protein abundance (concentration: 6mM)	NP40-soluble protein abundance (concentration: 8mM)	NP40-soluble protein abundance (concentration: 10mM)
UniProt Q8N490 and related entries	1.01 ± 0.035	0.9967 ± 0.0088	0.988 ± 0.021	0.995 ± 0.029	0.974 ± 0.027	1 ± 0.018
LIX1L (UniProt Q8IVB5)	0.987 ± 0.016	1.01 ± 0.052	0.993 ± 0.038	0.99 ± 0.064	0.994 ± 0.025	0.98 ± 0.042
